# US5981488 (dated 1999)
# Strings that start with PEPTIDE1 are HELM notation: dots part the residues, brackets hold end groups and non-standard residues.
# Legend:
# [1] = general procedure: Boc solid-phase peptide synthesis; MBHA resin (0.77 mmol/g); PAM resin for C-terminal acids; symmetric anhydrides; preformed hydroxy benzotriazole esters for Asp, Gln, Arg; details: whole synthesis
# [2] = general procedure: Boc solid-phase peptide synthesis; MBHA resin; symmetric anhydrides; preformed hydroxy benzotriazole esters for Asp, Gln, Arg; details: whole synthesis, scale 0.5 mmol
substance,measurement,setting,value
PEPTIDE1{H.M.E.G.T.F.T.S.D.V.S.S.Y.L.E.G.Q.A.A.K.E.F.I.A.W.L.V.K.G.R.[am]}$$$$V2.0,final HPLC purity,"[1]; analytical HPLC at pH 2.3, scale of the general procedure 0.5 mmol",60%
same,isolated yield,[1]; scale of the general procedure 0.5 mmol,10%
same,isolated mass,[2],125 mg
